For this experiment, the target named is T1, GST-Amphiphysin II SH3 domain (UniProt O00499).
T1 sequence: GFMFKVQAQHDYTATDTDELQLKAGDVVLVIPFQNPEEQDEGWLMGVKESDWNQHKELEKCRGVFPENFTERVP
Kind of experiment: pull-down; GST-Amph II SH3 on beads (approximately 20 μl) in about 3 mg H1299 post-nuclear fraction, 1 h rotation; 50 mM Tris, 150 mM NaCl, 0.2% Triton X-100; washed twice; western blot; only the target purified. For orientation: Immunoblotting shows a protein as a band on a membrane.

Results are given in words; binding and its absence hold for the method and conditions named. In cells and extracts the contact can be indirect. Some results given as binding are weak or reduced against the parent protein; the word gives no strength. Sequences can lack the tags named with a protein.

These results are taken from article PMC5927468.

B1: dynamin-1, endogenous in H1299 cells (protein, UniProt Q05193 1-864)
chain: MGNRGMEDLIPLVNRLQDAFSAIGQNADLDLPQIAVVGGQSAGKSSVLENFVGRDFLPRGSGIVTRRPLVLQLVNATTEYAEFLHCKGKKFTDFEEVRLEIEAETDRVTGTNKGISPVPINLRVYSPHVLNLTLVDLPGMTKVPVGDQPPDIEFQIRDMLMQFVTKENCLILAVSPANSDLANSDALKVAKEVDPQGQRTIGVITKLDLMDEGTDARDVLENKLLPLRRGYIGVVNRSQKDIDGKKDITAALAAERKFFLSHPSYRHLADRMGTPYLQKVLNQQLTNHIRDTLPGLRNKLQSQLLSIEKEVEEYKNFRPDDPARKTKALLQMVQQFAVDFEKRIEGSGDQIDTYELSGGARINRIFHERFPFELVKMEFDEKELRREISYAIKNIHGIRTGLFTPDMAFETIVKKQVKKIREPCLKCVDMVISELISTVRQCTKKLQQYPRLREEMERIVTTHIREREGRTKEQVMLLIDIELAYMNTNHEDFIGFANAQQRSNQMNKKKTSGNQDEILVIRKGWLTINNIGIMKGGSKEYWFVLTAENLSWYKDDEEKEKKYMLSVDNLKLRDVEKGFMSSKHIFALFNTEQRNVYKDYRQLELACETQEEVDSWKASFLRAGVYPERVGDKEKASETEENGSDSFMHSMDPQLERQVETIRNLVDSYMAIVNKTVRDLMPKTIMHLMINNTKEFIFSELLANLYSCGDQNTLMEESAEQAQRRDEMLRMYHALKEALSIIGDINTTTVSTPMPPPVDDSWLQVQSVPAGRRSPTSSPTPQRRAPAVPPARPGSRGPAPGPPPAGSALGGAPPVPSRPGASPDPFGPPPQVPSRPNRAPPGVPSRSGQASPSRPESPRPPFDL
As to B1, the binding entry is “binds”.
